Test results published in patent US7858617B2, “2-oxy-benzoxazinone derivatives for the treatment of obesity” (Norgine B.V., priority 1999, dated 2010).
For some assays here: At least one structure is not confirmed: it was looked up by name or label, or the drawing left a doubt. Some entries share one result that the patent states for a list of compounds.

Legend:
[1] = target: T1, porcine pancreatic lipase (Sus scrofa, UniProt P00591); experiment: Lipase enzyme activity, NaOH titration method; assay type: biochemical; settings: NaOH titration assay, system containing lipid micelles
T1 sequence (P00591 1-450): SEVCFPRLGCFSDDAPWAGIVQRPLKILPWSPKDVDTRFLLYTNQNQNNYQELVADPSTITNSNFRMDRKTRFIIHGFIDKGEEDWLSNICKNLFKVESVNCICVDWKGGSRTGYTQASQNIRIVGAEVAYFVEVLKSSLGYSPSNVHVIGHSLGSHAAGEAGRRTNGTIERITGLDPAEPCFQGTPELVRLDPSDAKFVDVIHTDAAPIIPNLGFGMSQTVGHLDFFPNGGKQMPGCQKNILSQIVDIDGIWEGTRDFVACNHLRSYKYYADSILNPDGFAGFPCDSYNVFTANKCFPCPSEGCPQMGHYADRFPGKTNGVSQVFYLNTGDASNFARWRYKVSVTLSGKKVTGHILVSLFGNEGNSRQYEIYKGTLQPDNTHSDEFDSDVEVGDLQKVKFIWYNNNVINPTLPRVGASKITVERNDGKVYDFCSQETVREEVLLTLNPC

lipase = experiment: Mouse model assay (Isler et al.); assay type: in vivo; settings: mouse model as described by Isler et al.
human pancreatic lipase = target: T2, human pancreatic lipase (Homo sapiens, UniProt P16233); experiment: Lipase activity, quinine diimine dye calorimetric assay (Sigma Lipase-PS); assay type: biochemical; settings: at 500 nM
T2 sequence (P16233 17-465): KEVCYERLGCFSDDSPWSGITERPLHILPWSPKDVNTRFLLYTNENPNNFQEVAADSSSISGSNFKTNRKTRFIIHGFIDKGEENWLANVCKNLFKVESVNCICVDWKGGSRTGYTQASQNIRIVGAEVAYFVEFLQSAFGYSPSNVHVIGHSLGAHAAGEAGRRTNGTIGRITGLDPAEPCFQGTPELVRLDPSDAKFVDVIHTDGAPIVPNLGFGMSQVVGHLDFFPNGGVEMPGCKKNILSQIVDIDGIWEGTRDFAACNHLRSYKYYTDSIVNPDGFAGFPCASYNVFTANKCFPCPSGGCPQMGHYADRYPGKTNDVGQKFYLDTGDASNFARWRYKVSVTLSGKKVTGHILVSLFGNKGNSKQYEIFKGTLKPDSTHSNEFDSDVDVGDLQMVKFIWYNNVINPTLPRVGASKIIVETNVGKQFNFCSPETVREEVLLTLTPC
Description: Measurement of Lipase Activity Using a Quinine Diimine Dye Calorimetric Assay
The inhibitory activity of the selected compounds to pancreatic lipase was measured in the following assay available from Sigma Ltd (Lipase-PS™, catalog number 805-A):
The glycerol released from the action of pancreatic and monoglyceride lipase was oxidised to release H2O2. The peroxidase reaction step then produces a quinine dye which is pink in colour and absorbs light at a wavelength of 550 nm.
Individual test compounds were dissolved in DMSO (dimethyl sulphoxide) at 10 mM. DMSO was used to avoid any problems with compounds being water-insoluble. For individual compounds, the IC50 (concentration at which lipase activity is inhibited to one half of the maximum) was calculated by measuring the inhibitory activity from log-dose response curves using a range of inhibitor concentrations.
A range of compounds was assayed in the quinine diimine dye calorimetric assay which provides a rapid method to measure lipase inhibitory activity.

CCCCCCOc1nc2ccccc2c(=O)o1 [Compound 30, 2-Hexyloxy-4H-3,1-benzoxazin-4-one]
IC50 [1]: < 1000 nM

Cc1ccc2nc(Oc3ccc(Oc4ccccc4)cc3)oc(=O)c2c1 [Compound 29, 6-Methyl-2-(4-phenoxyphenoxy)-4H-3,1-benzoxazin-4-one]
IC50 [1]: < 1000 nM

CCCCCCCC/C=C\CCCCCCCCOc1nc2ccc(C)cc2c(=O)o1 [Compound 24, (Z)-6-Methyl-2-(octadeca-9-enyloxy)-4H-3,1-benzoxazin-4-one]
IC50 [1]: < 1000 nM

CCCCCC/C=C\CCCCCCCCCCOc1nc2ccc(C)cc2c(=O)o1 [Compound 37, (Z)-6-Methyl-2-(octadeca-11-enyloxy)-4H-3,1-benzoxazin-4-one]
IC50 [1]: < 1000 nM

CCCCCCCCOc1nc2ccc(OC)cc2c(=O)o1 [Compound 28, 6-Methoxy-2-octyloxy-4H-3,1-benzoxazin-4-one]
IC50 [1]: < 1000 nM

O=c1oc(Oc2ccccc2)nc2ccccc12 [Compound 2, 2-Phenoxy-4H-3,1-benzoxazin-4-one]
IC50 [1]: < 1000 nM

Cc1ccc2nc(OCCCCc3ccccc3)oc(=O)c2c1 [Compound 35, 6-Methyl-2-(4-phenylbutyloxy)-4H-3,1-benzoxazin-4-one]
IC50 [1]: < 1000 nM

CCCCCCOc1nc2ccc(C)cc2c(=O)o1 [Compound 12, 2-Hexyloxy-6-methyl-4H-3,1-benzoxazin-4-one]
IC50 [1]: < 1000 nM

Cc1ccc2nc(OCCCCCCCCCCCCc3ccccc3)oc(=O)c2c1 [Compound 36, 6-Methyl-2-(12-phenyldodecyloxy)-4H-3,1-benzoxazin-4-one]
IC50 [1]: < 1000 nM

CCCCCCC#CCCCCCCCCCCOc1nc2ccc(C)cc2c(=O)o1 [Compound 38, 6-Methyl-2-(octadeca-11-ynyloxy)-4H-3,1-benzoxazin-4-one]
IC50 [1]: < 1000 nM

Cc1ccc2nc(OCCCCCCCCCCc3cccs3)oc(=O)c2c1 [Compound 39, 6-Methyl-2-[-10-(thien-2-yl)-decyloxy]-4H-3,1-benzoxazin-4-one]
IC50 [1]: < 1000 nM

CCCCCCCCOc1nc2cc(CCCC)ccc2c(=O)o1 [Compound 33, 7-Butyl-2-Octyloxy-4H-3,1-benzoxazin-4-one]
IC50 [1]: < 1000 nM

CCCCC(CC)COc1nc2ccc(C)cc2c(=O)o1 (centres unmarked) [Compound 13, 2(2-Ethylhexyloxy)-6-methyl-4H-3,1-benzoxazin-4-one]
IC50 [1]: < 1000 nM

Cc1ccc2nc(OCCCCCCCCCCCCCCCCOc3nc4ccc(C)cc4c(=O)o3)oc(=O)c2c1 [Compound 82, 2,2′-(1,16-Hexadecylidenedioxy)-bis-4H-3,1-benzoxazin-4-one]
IC50 [1]: < 1000 nM

Cc1ccc2nc(OCCC(C)CCCC(C)C)oc(=O)c2c1 (centres unmarked) [Compound 22, 2-(3,7-Dimethyloctyloxy)-6-methyl-4H-3,1-benzoxazin-4-one]
IC50 [1]: < 1000 nM

CCCCCCCCOc1nc2ccc(I)cc2c(=O)o1 [Compound 32, 6-Iodo-2-octyloxy-4H-3,1-benzoxazin-4-one]
IC50 [1]: < 1000 nM

CCCCCCCCCCCCCCOc1nc2ccc(C)cc2c(=O)o1 [Compound 16, 6-Methyl-2-tetradecyloxy-4H-3,1-benzoxazin-4-one]
IC50 [1]: < 1000 nM

CCCOc1nc2ccc(C)cc2c(=O)o1 [Compound 9, 6-Methyl-2-propoxy-4H-3,1-benzoxazin-4-one]
IC50 [1]: < 1000 nM

Cc1ccc2nc(OCCCCCCCCCCc3ccccc3)oc(=O)c2c1 [Compound 25, 6-Methyl-2-(10-phenyldecyloxy)-4H-3,1-benzoxazin-4-one]
IC50 [1]: < 1000 nM

CCCCCCOCCOCCOc1nc2ccc(C)cc2c(=O)o1 [Compound 23, 2-[2-(2-Hexyloxyethoxy)ethoxy]-6-methyl-4H-3,1-benzoxazin-4-one]
IC50 [1]: < 1000 nM

CCCCCCCCOc1nc2ccccc2c(=O)o1 [Compound 27, 2-Octyloxy-4H-3,1-benzoxazin-4-one]
IC50 [1]: < 1000 nM

CCCCCCCCCCCCCCCCOc1nc2ccc(C)cc2c(=O)o1 [Compound 18, 2-Hexadecyloxy-6-methyl-4H-3,1-benzoxazin-4-one]
IC50 [1]: < 1000 nM | lipase inhibition in mouse model (lipase): potent lipase inhibitor | selectivity towards pancreatic lipase versus trypsin and chymotrypsin (human pancreatic lipase): highly selective lipase inhibitor

CCCCCCOc1nc2ccc(CC)cc2c(=O)o1 [Compound 14, 6-Ethyl-2-hexyloxy-4H-3,1-benzoxazin-4-one]
IC50 [1]: < 1000 nM

CCOc1nc2ccc(C)cc2c(=O)o1 [Compound 1, 2-Ethoxy-6-methyl-4H-3,1-benzoxazin-4-one]
IC50 [1]: < 1000 nM

Cc1ccc2nc(OCCCCCCCCc3ccccc3)oc(=O)c2c1 [Compound 34, 6-Methyl-2-(8-phenyloctyloxy)-4H-3,1-benzoxazin-4-one]
IC50 [1]: < 1000 nM

CCCCCCCCCCOc1nc2ccc(C)cc2c(=O)o1 [Compound 15, 2-Decyloxy-6-methyl-4H-3,1-benzoxazin-4-one]
IC50 [1]: < 1000 nM

CCCOc1nc2ccccc2c(=O)o1 [Compound 7, 2-Propoxy-4H-3,1-benzoxazin-4-one]
IC50 [1]: < 1000 nM

CCCCCCCCOc1nc2cccc(C)c2c(=O)o1 [Compound 78, 5-Methyl-2-octyloxy-4H-3,1-benzoxazin-4-one]
IC50 [1]: < 1000 nM

Cc1ccc2nc(OCCCCCCOc3ccccc3)oc(=O)c2c1 [Compound 84, 6-Methyl-2-(6-phenoxyhexyloxy)-4H-3,1-benzoxazin-4-one]
IC50 [1]: < 1000 nM

Cc1ccc(Oc2nc3ccccc3c(=O)o2)cc1 [Compound 4, 2-(4-Methylphenoxy)-4H-3,1-benzoxazin-4-one]
IC50 [1]: < 1000 nM

CCCCCCCCOc1nc2ccc(C)cc2c(=O)o1 [Compound 11, 6-Methyl-2-octyloxy-4H-3,1-benzoxazin-4-one]
IC50 [1]: < 1000 nM

Cc1ccc2nc(OCCCCCCOc3ccc(Oc4ccccc4)cc3)oc(=O)c2c1 [Compound 85, 6-Methyl-2-[6-(4-phenoxyphenoxy)hexyloxy]-4H-3,1-benzoxazin-4-one]
IC50 [1]: < 1000 nM

Cc1ccc2nc(Oc3ccccc3)oc(=O)c2c1 [Compound 8, 6-Methyl-2-phenoxy-4H-3,1-benzoxazin-4-one]
IC50 [1]: < 1000 nM
